Results taken from patent US20250262336A1, “[177LU] LUTETIUM-PSMA I&T COMPOSITION AND DOSIMETRY, KIT, METHOD OF MAKING, AND METHOD OF USING THEREOF” (Curium US LLC, priority 2023, published 2025).
Values joined by “and” are separate entries in the source; they are usually repeats but may differ in a detail not shown here. Equal entries are not always repeated. At least one peptide structure holds a part that was inferred or is arguable (an end, a ring closure or a residue).

Columns and labels:
Type in all cases: in vivo, human
[1] = Cycle 1 biodistribution: SPECT/CT time-activity curves (fraction of injected activity); settings: bi-exponential fit, mean, excluding patient 42-030
Description: This Example presents the biodistribution, dosimetry, and pharmacokinetics (PK) results of a PK/Dosimetry sub-study performed as part of a Phase III trial. Twenty-seven (27) patients were administered a target activity of 7.4±10% GBq of ^177Lu-PSMA-I&T and underwent single photon emission computed tomography (SPECT)/computed tomography (CT) imaging at four timepoints (4 h, 24 h, 48 h, and 168 h). Image data was analysed to compute time-activity curves (TACs) and subsequently time-integrated activity coefficients (TIACs) in each organ of interest and in organs showing appreciable and meaningful ^177Lu-PSMA-I&T activity. Organ Level Internal Dose Assessment (OLINDA 2.2.3) was used to compute organ and whole body absorbed radiation doses for each patient.
All participating sites underwent a rigorous site setup process during which all dose calibrators, scanners, and gamma counters used in the sub-study were calibrated. Sites were allowed to enroll patients in the sub-study only after the completion and approval of all site setup processes by Invicro. […]
Clearance of the radiopharmaceutical was derived from a data-appropriate fit of each organ's TAC. […] TIACs were calculated through analytical integration of the curve fit extrapolated to infinity. […] The remainder activity was determined by subtracting the cumulative organ TIACs from the whole body TIAC. […]

[2] = Cycle 1 plasma PK (gamma counting of plasma, bi-exponential fit)
Description: Additionally, for PK assessment, whole blood samples were collected at six timepoints (Pre-Infusion, 1 h, 4 h, 24 h, 48 h, and 168 h) and processed to extract plasma. All plasma samples were gamma counted locally for analysis of pharmacokinetics.
PK plasma samples were collected at pre-Infusion, 1 h, 4 h, 24 h, 48 h, and 168 h, and counted for radioactivity. Blood samples were first centrifuged to extract plasma, and then the radioactivity in plasma was counted in a gamma counter.
(§1) Whole blood samples were collected as detailed in the protocol Schedule of Events i.e. pre-injection, and then at 1 h, 4 h, 24 h, 48 h, and 168 h post-injection. The samples were first centrifuged to separate plasma, and the radioactivity in the plasma was then measured using a gamma counter. Plasma concentrations were subsequently fitted with a bi-exponential function to derive outcome parameters such as the half-life and clearance rate of the radiopharmaceutical in the plasma.
For each sample, collect sufficient sample volume for triplicate aliquots to meet the measurement requirements of your institution's gamma counter and perform measurements according to standard procedure. Blood will be processed and plasma will be measured on the gamma counter, as described in the following subsections.
All blood samples drawn must be aliquoted 3 times, labeled appropriately, and stored per standard procedure for later measurement of plasma in the qualified gamma counter. All samples will be counted as a group for each patient for each Cycle, no later than 24 hours following the final sample collection.
Collect 5 ml of blood in a BD PPT system (Plasma Protein Preservation Tube-draw volume of 5 mL).
Centrifuge at 18-25° C. at 1100 g for 10 min. The resulting supernatant is designated plasma.
Gamma Counter Measurements: All patient samples must be counted for 60 seconds, with a counting energy window of 102-229 keV.

[3] = Cycle 3 plasma PK modelling
Description: as §1
(§2) Blood samples were obtained for 15 out of 16 patients at cycle 3. Patients 12-004 had blood taken only at the 24 h timepoint and, therefore, was not included in the plasma PK analysis. Consistent with Cycle 1, the time-course of plasma concentrations was similar among the patients. The ranges of PK parameters obtained at cycle 3 were similar to those from Cycle 1 data (Tables 9A and 9B).
as §2, with “(Table 29). See Table 29) Cycle 3 PK plasma modeling results (n15)” for “(Tables 9A and 9B).”

[4] = Cycle 1, plasma, individual patients
[5] = Cycle 1, plasma, patient 42-030 excluded
[6] = cycle 1, plasma radioactivity concentration, bi-exponential fit

With `O=C(O)CC[C@H](NC(=O)N[C@@H](CCCCNC(=O)CCCCCCC(=O)NCCCC[C@@H](NC(=O)[C@@H](Cc1ccccc1)NC(=O)[C@@H](Cc1ccc(O)c(I)c1)NC(=O)CC[C@H](C(=O)O)N1CCN(CC(=O)O)CCN(CC(=O)O)CCN(CC(=O)O)CC1)C(=O)O)C(=O)O)C(=O)O` [^177Lu-PSMA-I&T, (3S,7 S,26R,29R,32R,37R)-29-benzyl-32-(4-hydroxy-3-iodobenzyl)-5,13,20,28,31,34-hexaoxo-37-(4,7,10-tris(carboxymethyl)-1,4,7,10-tetraazacyclododecan-1-yl)-4,6,12,21,27,30,33-heptaazaheptatriacontane-1,3,7,26,37-pentacarboxylic acid; lutetium-177 (III), metal not drawn] the whole-body distribution half-life [1] was 2.16 ± 1.30 h, the whole-body elimination half-life [1] was 46.29 ± 23.83 h and the “Clearance Rate” value [2, 4] was 10.74 L/h and 3.89 L/h and 4.21 L/h and 9.97 L/h and 17.94 L/h and 89.38 L/h and 6.26 L/h and 9.62 L/h and 7.63 L/h and 2.82 L/h and 4.73 L/h and 21.26 L/h and 2.89 L/h and 20.65 L/h and 8.08 L/h and 5.73 L/h and 7.92 L/h and 17.68 L/h and 10.55 L/h and 14.19 L/h and 17.10 L/h and 10.68 L/h and 3.95 L/h and 13.78 L/h and 3.66 L/h and 4.78 L/h and 12.34 L/h. The “Distribution Half-Life” value [2, 4] was 1.14 h and 2.14 h and 1.88 h and 1.93 h and 1.69 h and 2.13 h and 2.19 h and 2.31 h and 1.81 h and 1.66 h and 1.78 h and 1.35 h and 1.77 h and 2.12 h and 1.92 h and 2.39 h and 1.30 h and 2.03 h and 2.42 h and 1.46 h and 2.05 h and 2.04 h and 2.22 h and 2.21 h and 1.67 h, the “Elimination Half-Life” value [2, 4] was 9.61 h and 24.34 h and 15.32 h and 9.32 h and 10.58 h and 10.59 h and 12.43 h and 10.02 h and 10.46 h and 9.19 h and 12.50 h and 53.30 h and 10.35 h and 9.28 h and 8.16 h and 8.92 h and 35.48 h and 8.68 h and 11.79 h and 19.98 h and 11.28 h and 9.41 h and 23.96 h and 16.65 h and the Vd [2, 4] was 148.91 L and 136.62 L and 93.01 L and 134.00 L and 273.75 L and 1365.03 L and 112.27 L and 139.07 L and 115.14 L and 463.99 L and 62.71 L and 383.51 L and 222.08 L and 308.54 L and 108.16 L and 67.50 L and 118.24 L and 227.51 L and 540.13 L and 177.78 L and 291.02 L and 307.91 L and 64.25 L and 187.12 L and 54.60 L and 165.33 L and 296.49 L. For the same compound, the “Clearance Rate, max” value [2, 5] was 89.38 L/h, the “Clearance Rate, median” value [2, 5] was 9.79 L/h and the “Clearance Rate, min” value [2, 5] was 2.89 L/h. The “Distribution Half-Life, max” value [2, 5] was 2.42 h, the “Distribution Half-Life, median” value [2, 5] was 1.93 h and the “Distribution Half-Life, min” value [2, 5] was 1.14 h. For the same compound, the “Elimination Half-Life, max” value [2, 5] was 53.30 h, the “Elimination Half-Life, median” value [2, 5] was 10.52 h and the “Elimination Half-Life, min” value [2, 5] was 8.16 h. The “Vd, Mean” value [2, 5] was 234.64 L, the “Vd, max” value [2, 5] was 1365.03 L and the “Vd, median” value [2, 5] was 157.12 L. For the same compound, the “Vd, min” value [2, 5] was 54.60 L, the “plasma half-life, patient 42-030 (outlier)” value ([2]; cycle 1, patient with superscan) was 113.96 h and the clearance ([2]; cycle 1, plasma) was 13.06 ± 16.50 L/h. The “plasma mean distribution half-life” value [2, 6] was 1.89 ± 0.34 h, the “plasma mean elimination half-life” value [2, 6] was 14.7 ± 10.1 h and 14.70 ± 10.10 h and the “Clearance Rate” value ([3]; individual patients) was 4.07 L/h and 7.68 L/h and 6.78 L/h and 7.81 L/h and 4.95 L/h and 14.60 L/h and 18.27 L/h and 9.22 L/h and 8.52 L/h and 25.73 L/h and 11.43 L/h and 13.59 L/h and 3.34 L/h and 5.74 L/h and 3.01 L/h. The “Distribution Half-Life” value ([3]; individual patients) was 2.07 h and 1.69 h and 1.88 h and 2.30 h and 2.06 h and 1.64 h and 2.55 h and 2.28 h and 1.85 h and 2.11 h and 3.17 h and 2.61 h and 2.22 h, the “Elimination Half-Life” value ([3]; individual patients) was 12.51 h and 11.70 h and 10.92 h and 9.33 h and 9.92 h and 8.16 h and 9.10 h and 9.11 h and 10.32 h and 9.75 h and 9.63 h and 10.67 h and 18.37 h and 14.16 h and the Vd ([3]; individual patients) was 73.36 L and 129.70 L and 106.80 L and 105.05 L and 70.92 L and 171.89 L and 239.78 L and 121.21 L and 126.73 L and 361.81 L and 158.71 L and 191.15 L and 51.46 L and 152.16 L and 61.59 L. The “Clearance Rate, Mean” value ([3]; n = 15) was 9.65 L/h, the “Clearance Rate, max” value ([3]; n = 15) was 25.73 L/h and the “Clearance Rate, median” value ([3]; n = 15) was 7.81 L/h. For the same compound, the “Clearance Rate, min” value ([3]; n = 15) was 3.01 L/h, the “Distribution Half-Life, Mean” value ([3]; n = 15) was 2.17 h and the “Distribution Half-Life, max” value ([3]; n = 15) was 3.17 h. For the same compound, the “Distribution Half-Life, median” value ([3]; n = 15) was 2.07 h, the “Distribution Half-Life, min” value ([3]; n = 15) was 1.64 h and the “Elimination Half-Life, Mean” value ([3]; n = 15) was 10.89 h. For the same compound, the “Elimination Half-Life, max” value ([3]; n = 15) was 18.37 h, the “Elimination Half-Life, median” value ([3]; n = 15) was 9.92 h and the “Elimination Half-Life, min” value ([3]; n = 15) was 8.16 h. For the same compound, the “Vd, Mean” value ([3]; n = 15) was 141.49 L, the “Vd, max” value ([3]; n = 15) was 361.81 L and the “Vd, median” value ([3]; n = 15) was 126.73 L. For the same compound, the “Vd, min” value ([3]; n = 15) was 51.46 L.
